Laboratory results taken from PMC3898117.
No constants are given. Whether binding was seen depends on the method and setting. For part of these data: In cells and extracts the contact can be indirect. Some results given as binding are weak or reduced against the parent protein; the word gives no strength.

Chains of the proteins cited; added tags and fusions are not shown. Lines headed by an entry give the natural chain unless they say otherwise; changes in a name come on top. A line that says so, or that is headed by a name, gives the form on record, which may keep a tag or linker.
UniProt Q92973: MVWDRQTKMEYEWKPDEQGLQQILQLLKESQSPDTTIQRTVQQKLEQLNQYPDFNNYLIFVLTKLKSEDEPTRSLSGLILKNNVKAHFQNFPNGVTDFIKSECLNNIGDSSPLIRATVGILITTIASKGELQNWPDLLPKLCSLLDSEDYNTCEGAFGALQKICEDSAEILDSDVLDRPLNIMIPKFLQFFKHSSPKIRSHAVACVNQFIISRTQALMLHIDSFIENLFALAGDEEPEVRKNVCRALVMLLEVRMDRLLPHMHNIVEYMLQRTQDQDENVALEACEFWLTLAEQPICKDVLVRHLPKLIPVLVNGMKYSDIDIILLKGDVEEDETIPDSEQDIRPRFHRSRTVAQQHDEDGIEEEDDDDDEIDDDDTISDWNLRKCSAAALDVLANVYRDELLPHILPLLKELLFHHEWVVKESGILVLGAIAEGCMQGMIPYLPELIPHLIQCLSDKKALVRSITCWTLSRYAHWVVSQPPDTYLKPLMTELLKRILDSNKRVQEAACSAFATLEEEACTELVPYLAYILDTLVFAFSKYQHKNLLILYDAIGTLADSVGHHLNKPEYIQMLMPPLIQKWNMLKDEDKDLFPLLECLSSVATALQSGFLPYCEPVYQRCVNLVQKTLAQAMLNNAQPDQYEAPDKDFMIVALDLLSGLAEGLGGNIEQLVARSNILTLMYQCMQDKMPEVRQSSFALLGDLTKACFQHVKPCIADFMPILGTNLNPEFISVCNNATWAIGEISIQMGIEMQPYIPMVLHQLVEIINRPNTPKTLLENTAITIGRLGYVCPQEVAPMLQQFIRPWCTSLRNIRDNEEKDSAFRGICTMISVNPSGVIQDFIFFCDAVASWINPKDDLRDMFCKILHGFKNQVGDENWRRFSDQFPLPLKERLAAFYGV
UniProt Q9BTL3: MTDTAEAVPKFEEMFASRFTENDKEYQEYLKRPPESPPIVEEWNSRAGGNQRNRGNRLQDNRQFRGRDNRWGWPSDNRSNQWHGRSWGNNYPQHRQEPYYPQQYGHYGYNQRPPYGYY
RAM–GFP PY2AA (Q9BTL3, form named): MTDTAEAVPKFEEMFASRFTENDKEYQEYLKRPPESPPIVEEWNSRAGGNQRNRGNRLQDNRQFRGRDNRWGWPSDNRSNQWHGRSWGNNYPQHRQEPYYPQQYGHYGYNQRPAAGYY

Key:
Myc–Kapβ2 = Myc–Kapβ2 (UniProt Q92973); test: co-IP; HeLa cells transfected with Myc-Kapβ2 and RAM-GFP, PY/AA mutants or GFP; precipitation from cell extracts with anti-Myc (9E10) antibodies; blots for Myc–Kapβ2 and RAM
[1] = molecular target: GST–RAM WT (RNMT-activating mini-protein, wild type) (human) (UniProt Q9BTL3); test: pull-down; 0.5 nmol GST–RAM with 0.2 nmol Kapβ2 in TB buffer (20 mM Hepes pH 7.3, 10 mM potassium acetate, 2 mM magnesium acetate, 2 mM EGTA, 2 mM DTT, 20% glycerol); glutathione–Sepharose; Western blotting; both purified

| binding (Myc–Kapβ2) | binding [1] | Substance |
| --- | --- | --- |
| binds |  | RAM–GFP PY2AA (from UniProt Q9BTL3 1-118) |
|  | binds | recombinant Kapβ2 (karyopherin β2) (from UniProt Q92973 1-898) |
| binds |  | RAM–GFP WT (from UniProt Q9BTL3 1-118) |
